PubChem BioAssay AID1259254 | NCATS | 2017
In all, the deposit lists about 59,000 reagents; this is an unselected part. In the full data, about 1,550 (2.6%) are marked active. 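G2 share is only a proxy for re-replication; each gene was hit by three separate siRNAs, and active genes were retested.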 Raw values vary from plate to plate and are shown uncorrected. The numbers tell different reagents against one gene apart. Not stated in the record: the amount of reagent.

- Assay: 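Finding genes that stop cells copying their DNA twice in one cycle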 (primary screen)
- Cell system: human HCT116 colorectal cancer cells
- Reagents: single siRNA against human genes
- Duration: 3 days
- Measured: 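Imaged Hoechst DNA stain sorts each cell into a cycle phase by DNA amount; per plate, G2 fraction set to 0% for non-targeting and 100% for GMNN siRNA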
- Reading the numbers: G2 robust z-score and G2 cells, % of GMNN control: higher = more G2 cells, more excess DNA replication; raw share of cells in G2: higher = larger share of cells with G2 DNA content
- Call rule: 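Active siRNAs have a G2 robust z of 5 or more median absolute deviations over the median, which in these data means about 38% or higher of GMNN control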

target gene,reagent no.,G2 robust z-score,"G2 cells, % of GMNN control",raw share of cells in G2 (%),Outcome
CCDC68 (coiled-coil domain containing 68),1,-0.757,-2.36,3.47,inactive
CCDC68 (coiled-coil domain containing 68),2,-0.955,-3.76,2.66,inactive
CCDC68 (coiled-coil domain containing 68),3,-0.716,-2.07,1.81,inactive
FRG2C (FSHD region gene 2 family member C),1,-0.216,1.45,3.71,inactive
FRG2C (FSHD region gene 2 family member C),2,-0.277,1.02,4.01,inactive
FRG2C (FSHD region gene 2 family member C),3,0.468,6.26,5.46,inactive
CSTF2T (cleavage stimulation factor subunit 2 tau variant),1,1.6,14.2,12.1,inactive
CSTF2T (cleavage stimulation factor subunit 2 tau variant),2,-1.08,-4.6,2.62,inactive
CSTF2T (cleavage stimulation factor subunit 2 tau variant),3,-0.157,1.86,4.5,inactive
FOXI2 (forkhead box I2),1,-0.221,1.42,4.33,inactive
FOXI2 (forkhead box I2),2,0.731,8.11,6.74,inactive
FOXI2 (forkhead box I2),3,-0.685,-1.85,4.02,inactive
ZBTB8OSP2,1,-0.374,0.339,3.33,inactive
ZBTB8OSP2,2,-0.282,0.981,3.53,inactive
ZBTB8OSP2,3,-0.715,-2.06,3.28,inactive
NUDT16L1 (nudix hydrolase 16 like 1),1,-0.261,1.13,4.48,inactive
NUDT16L1 (nudix hydrolase 16 like 1),2,-0.761,-2.39,2.75,inactive
NUDT16L1 (nudix hydrolase 16 like 1),3,3.51,27.6,10.8,inactive
RSPH4A (radial spoke head component 4A),1,2.79,22.6,13.8,inactive
RSPH4A (radial spoke head component 4A),2,4.42,34.1,16.7,inactive
RSPH4A (radial spoke head component 4A),3,1.58,14.1,12,inactive
LOC729316 (POM121 membrane glycoprotein pseudogene),1,0.388,5.7,6.11,inactive
LOC729316 (POM121 membrane glycoprotein pseudogene),2,1.72,15.1,8.19,inactive
LOC729316 (POM121 membrane glycoprotein pseudogene),3,0.706,7.93,6.2,inactive
"LUC7L2 (LUC7 like 2, pre-mRNA splicing factor)",1,-1.06,-4.5,1.99,inactive
"LUC7L2 (LUC7 like 2, pre-mRNA splicing factor)",2,0.502,6.5,7.01,inactive
"LUC7L2 (LUC7 like 2, pre-mRNA splicing factor)",3,-0.26,1.14,3.57,inactive
HLCS (holocarboxylase synthetase),1,1.86,16,10.1,inactive
HLCS (holocarboxylase synthetase),2,16.8,121,49,active
HLCS (holocarboxylase synthetase),3,1.2,11.4,10,inactive
FOXI1 (forkhead box I1),1,2.81,22.7,13.5,inactive
FOXI1 (forkhead box I1),2,3.31,26.3,15.2,inactive
FOXI1 (forkhead box I1),3,3.86,30.1,14.4,inactive
OTOP2 (otopetrin 2),1,-0.868,-3.14,2.75,inactive
OTOP2 (otopetrin 2),2,-0.947,-3.69,1.84,inactive
OTOP2 (otopetrin 2),3,3.24,25.7,11.1,inactive
RNF19B (ring finger protein 19B),1,1.91,16.4,10.4,inactive
RNF19B (ring finger protein 19B),2,0.334,5.32,4.79,inactive
RNF19B (ring finger protein 19B),3,-0.287,0.946,2.92,inactive
PRAME (PRAME nuclear receptor transcriptional regulator),1,1.64,14.5,9.86,inactive
PRAME (PRAME nuclear receptor transcriptional regulator),2,0.274,4.89,6.06,inactive
PRAME (PRAME nuclear receptor transcriptional regulator),3,0.899,9.29,6.55,inactive
ZDHHC21 (zDHHC palmitoyltransferase 21),1,0.148,4.01,7.64,inactive
ZDHHC21 (zDHHC palmitoyltransferase 21),2,-0.754,-2.34,3.43,inactive
ZDHHC21 (zDHHC palmitoyltransferase 21),3,1.21,11.5,9.45,inactive
DLAT (dihydrolipoamide S-acetyltransferase),1,-0.0459,2.64,5.9,inactive
DLAT (dihydrolipoamide S-acetyltransferase),2,1.35,12.5,8.4,inactive
DLAT (dihydrolipoamide S-acetyltransferase),3,-0.706,-2,4.26,inactive
HDHD2 (haloacid dehalogenase like hydrolase domain containing 2),1,-0.38,0.296,4.21,inactive
HDHD2 (haloacid dehalogenase like hydrolase domain containing 2),2,0.236,4.63,4.83,inactive
HDHD2 (haloacid dehalogenase like hydrolase domain containing 2),3,-0.706,-2,1.8,inactive
PHF11 (PHD finger protein 11),1,-0.893,-3.32,2.53,inactive
PHF11 (PHD finger protein 11),2,4.7,36,17.5,inactive
PHF11 (PHD finger protein 11),3,0.373,5.59,8.49,inactive
TP53AIP1 (tumor protein p53 regulated apoptosis inducing protein 1),1,1.21,11.5,5.73,inactive
TP53AIP1 (tumor protein p53 regulated apoptosis inducing protein 1),2,1.13,10.9,9.32,inactive
TP53AIP1 (tumor protein p53 regulated apoptosis inducing protein 1),3,2.89,23.3,15.1,inactive
MYOM1 (myomesin 1),1,-0.209,1.49,5.79,inactive
MYOM1 (myomesin 1),2,-0.0857,2.36,4.83,inactive
MYOM1 (myomesin 1),3,2.99,24,11.8,inactive
OR4D10 (olfactory receptor family 4 subfamily D member 10),1,-0.505,-0.586,3.57,inactive
OR4D10 (olfactory receptor family 4 subfamily D member 10),2,-0.855,-3.05,2.08,inactive
OR4D10 (olfactory receptor family 4 subfamily D member 10),3,-0.661,-1.68,3.91,inactive
SMC1A (structural maintenance of chromosomes 1A),1,-1.43,-7.08,2.17,inactive
SMC1A (structural maintenance of chromosomes 1A),2,4.3,33.2,16.9,inactive
SMC1A (structural maintenance of chromosomes 1A),3,-0.338,0.591,4.81,inactive
ANXA8L1 (annexin A8 like 1),1,0.33,5.29,5.96,inactive
ANXA8L1 (annexin A8 like 1),2,-0.973,-3.88,3.4,inactive
ANXA8L1 (annexin A8 like 1),3,1.79,15.6,10.6,inactive
ANXA8L1 (annexin A8 like 1),4,-0.323,0.693,3.8,inactive
ANXA8L1 (annexin A8 like 1),5,-0.388,0.239,2.96,inactive
ANXA8L1 (annexin A8 like 1),6,-0.908,-3.42,2.31,inactive

Sorted by “G2 cells, % of GMNN control” (ascending): some entries from above
target gene,reagent no.,G2 robust z-score,"G2 cells, % of GMNN control",raw share of cells in G2 (%),Outcome
OTOP2 (otopetrin 2),2,-0.947,-3.69,1.84,inactive
OTOP2 (otopetrin 2),1,-0.868,-3.14,2.75,inactive
FOXI1 (forkhead box I1),3,3.86,30.1,14.4,inactive
